From the supplement of paper PMC10849652
The other results are listed elsewhere or left out.

Amino acid sequences for entries named in this document (tags omitted). A change or cut given only in a name is not applied to a line headed by its entry.
UniProt Q8NBN7: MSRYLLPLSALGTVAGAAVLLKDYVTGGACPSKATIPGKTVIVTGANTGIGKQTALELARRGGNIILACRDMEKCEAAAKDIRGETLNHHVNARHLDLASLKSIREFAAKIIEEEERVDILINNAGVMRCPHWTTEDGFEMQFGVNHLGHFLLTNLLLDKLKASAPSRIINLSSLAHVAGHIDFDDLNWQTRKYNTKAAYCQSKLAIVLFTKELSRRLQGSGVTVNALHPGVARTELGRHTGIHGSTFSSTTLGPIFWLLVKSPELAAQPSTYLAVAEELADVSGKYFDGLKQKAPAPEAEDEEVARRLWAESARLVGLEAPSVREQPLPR
UniProt Q9BVS4: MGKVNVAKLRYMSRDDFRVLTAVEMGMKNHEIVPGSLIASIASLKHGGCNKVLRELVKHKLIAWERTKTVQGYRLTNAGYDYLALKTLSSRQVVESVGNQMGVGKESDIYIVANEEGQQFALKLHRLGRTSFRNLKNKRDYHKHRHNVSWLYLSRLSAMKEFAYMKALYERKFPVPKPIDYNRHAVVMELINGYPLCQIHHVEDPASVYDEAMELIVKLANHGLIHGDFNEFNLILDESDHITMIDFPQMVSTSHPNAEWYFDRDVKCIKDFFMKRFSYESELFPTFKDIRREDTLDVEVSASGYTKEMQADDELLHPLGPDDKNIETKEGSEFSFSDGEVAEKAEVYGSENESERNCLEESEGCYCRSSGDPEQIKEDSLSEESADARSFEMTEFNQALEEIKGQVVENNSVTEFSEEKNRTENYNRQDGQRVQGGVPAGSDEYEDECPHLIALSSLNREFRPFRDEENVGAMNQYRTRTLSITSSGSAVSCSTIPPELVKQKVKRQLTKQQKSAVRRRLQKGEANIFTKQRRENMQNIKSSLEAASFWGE
UniProt Q9NPQ8: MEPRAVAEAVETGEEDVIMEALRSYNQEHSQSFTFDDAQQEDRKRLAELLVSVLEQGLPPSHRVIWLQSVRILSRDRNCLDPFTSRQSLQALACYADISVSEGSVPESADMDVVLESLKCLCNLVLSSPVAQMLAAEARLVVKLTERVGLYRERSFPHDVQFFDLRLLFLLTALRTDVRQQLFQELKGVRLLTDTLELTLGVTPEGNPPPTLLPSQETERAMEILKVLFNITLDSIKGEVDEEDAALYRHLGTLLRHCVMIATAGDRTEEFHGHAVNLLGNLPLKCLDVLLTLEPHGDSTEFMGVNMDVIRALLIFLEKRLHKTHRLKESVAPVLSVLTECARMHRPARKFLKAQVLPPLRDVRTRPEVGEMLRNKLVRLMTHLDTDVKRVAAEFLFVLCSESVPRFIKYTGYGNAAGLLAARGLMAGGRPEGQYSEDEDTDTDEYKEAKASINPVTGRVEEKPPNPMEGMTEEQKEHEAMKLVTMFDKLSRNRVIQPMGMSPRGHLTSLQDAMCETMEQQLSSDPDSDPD
UniProt Q8NC44: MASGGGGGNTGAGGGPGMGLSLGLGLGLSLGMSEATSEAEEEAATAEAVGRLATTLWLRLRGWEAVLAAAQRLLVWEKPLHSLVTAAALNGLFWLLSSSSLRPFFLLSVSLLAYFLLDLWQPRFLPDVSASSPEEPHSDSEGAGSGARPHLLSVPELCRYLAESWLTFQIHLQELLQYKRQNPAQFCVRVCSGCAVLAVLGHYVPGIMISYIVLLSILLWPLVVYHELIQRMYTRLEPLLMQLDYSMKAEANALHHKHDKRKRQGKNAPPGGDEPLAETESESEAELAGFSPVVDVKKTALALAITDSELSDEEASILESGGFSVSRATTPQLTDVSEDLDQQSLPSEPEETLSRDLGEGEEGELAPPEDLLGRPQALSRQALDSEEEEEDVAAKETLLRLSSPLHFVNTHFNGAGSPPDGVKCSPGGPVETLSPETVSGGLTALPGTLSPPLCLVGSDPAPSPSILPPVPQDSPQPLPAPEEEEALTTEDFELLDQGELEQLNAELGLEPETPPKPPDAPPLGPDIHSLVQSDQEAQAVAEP
UniProt Q9P260: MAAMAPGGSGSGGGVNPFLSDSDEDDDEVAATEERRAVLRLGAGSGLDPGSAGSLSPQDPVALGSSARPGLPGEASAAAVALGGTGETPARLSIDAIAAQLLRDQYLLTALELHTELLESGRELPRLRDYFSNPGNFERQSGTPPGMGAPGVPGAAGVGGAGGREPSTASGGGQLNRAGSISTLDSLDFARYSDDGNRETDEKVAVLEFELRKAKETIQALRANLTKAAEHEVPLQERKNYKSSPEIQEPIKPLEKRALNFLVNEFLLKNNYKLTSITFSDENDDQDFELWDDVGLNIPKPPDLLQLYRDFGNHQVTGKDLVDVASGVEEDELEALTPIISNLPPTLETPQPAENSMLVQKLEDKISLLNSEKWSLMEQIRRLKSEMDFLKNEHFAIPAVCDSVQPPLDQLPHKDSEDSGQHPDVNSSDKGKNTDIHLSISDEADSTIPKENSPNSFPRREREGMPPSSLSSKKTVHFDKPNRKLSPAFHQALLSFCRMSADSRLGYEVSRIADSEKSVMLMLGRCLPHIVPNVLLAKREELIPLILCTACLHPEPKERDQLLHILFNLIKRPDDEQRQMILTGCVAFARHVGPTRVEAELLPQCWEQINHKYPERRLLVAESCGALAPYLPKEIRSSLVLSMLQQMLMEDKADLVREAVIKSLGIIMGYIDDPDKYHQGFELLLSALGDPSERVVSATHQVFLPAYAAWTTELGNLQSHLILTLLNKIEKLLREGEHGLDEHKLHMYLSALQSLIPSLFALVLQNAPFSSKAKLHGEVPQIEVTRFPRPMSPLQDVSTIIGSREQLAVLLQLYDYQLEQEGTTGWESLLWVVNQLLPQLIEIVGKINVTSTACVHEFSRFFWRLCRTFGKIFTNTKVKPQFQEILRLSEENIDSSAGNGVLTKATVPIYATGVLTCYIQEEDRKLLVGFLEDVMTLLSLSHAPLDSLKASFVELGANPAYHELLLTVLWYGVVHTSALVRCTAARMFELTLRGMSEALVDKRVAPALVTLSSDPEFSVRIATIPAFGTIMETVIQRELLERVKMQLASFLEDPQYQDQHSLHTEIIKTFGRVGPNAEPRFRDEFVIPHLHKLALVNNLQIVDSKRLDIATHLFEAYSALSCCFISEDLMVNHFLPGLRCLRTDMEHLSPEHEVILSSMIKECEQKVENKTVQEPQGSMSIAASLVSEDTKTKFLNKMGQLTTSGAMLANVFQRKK
UniProt Q04864: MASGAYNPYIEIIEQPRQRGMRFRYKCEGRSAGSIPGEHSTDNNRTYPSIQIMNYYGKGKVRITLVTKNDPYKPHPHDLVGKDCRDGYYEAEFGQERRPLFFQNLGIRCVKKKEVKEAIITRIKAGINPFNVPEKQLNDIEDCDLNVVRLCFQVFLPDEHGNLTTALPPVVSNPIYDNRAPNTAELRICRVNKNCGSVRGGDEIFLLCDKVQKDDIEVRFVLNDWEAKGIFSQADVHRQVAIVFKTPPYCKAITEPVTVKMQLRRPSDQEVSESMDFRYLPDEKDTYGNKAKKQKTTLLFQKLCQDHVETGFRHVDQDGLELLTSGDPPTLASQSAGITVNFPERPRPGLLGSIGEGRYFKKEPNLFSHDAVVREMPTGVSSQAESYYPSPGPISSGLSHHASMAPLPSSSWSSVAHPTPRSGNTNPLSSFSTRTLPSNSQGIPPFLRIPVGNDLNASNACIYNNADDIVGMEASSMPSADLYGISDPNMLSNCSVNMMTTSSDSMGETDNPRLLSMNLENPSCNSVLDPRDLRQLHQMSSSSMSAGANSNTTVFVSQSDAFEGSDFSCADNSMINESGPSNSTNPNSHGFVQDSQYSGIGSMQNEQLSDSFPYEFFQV
UniProt O43665: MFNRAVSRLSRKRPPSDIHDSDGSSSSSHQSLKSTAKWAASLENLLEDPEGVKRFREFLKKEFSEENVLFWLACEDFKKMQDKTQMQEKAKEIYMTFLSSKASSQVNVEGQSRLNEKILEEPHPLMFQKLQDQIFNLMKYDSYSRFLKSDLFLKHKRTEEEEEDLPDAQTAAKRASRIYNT
UniProt Q5TA31: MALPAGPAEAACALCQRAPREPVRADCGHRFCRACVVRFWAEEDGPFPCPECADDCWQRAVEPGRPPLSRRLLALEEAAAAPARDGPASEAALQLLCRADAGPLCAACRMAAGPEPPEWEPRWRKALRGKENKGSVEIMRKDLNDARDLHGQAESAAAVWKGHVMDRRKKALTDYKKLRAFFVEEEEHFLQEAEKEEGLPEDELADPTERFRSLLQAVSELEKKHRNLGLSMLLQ
UniProt Q9UBS8: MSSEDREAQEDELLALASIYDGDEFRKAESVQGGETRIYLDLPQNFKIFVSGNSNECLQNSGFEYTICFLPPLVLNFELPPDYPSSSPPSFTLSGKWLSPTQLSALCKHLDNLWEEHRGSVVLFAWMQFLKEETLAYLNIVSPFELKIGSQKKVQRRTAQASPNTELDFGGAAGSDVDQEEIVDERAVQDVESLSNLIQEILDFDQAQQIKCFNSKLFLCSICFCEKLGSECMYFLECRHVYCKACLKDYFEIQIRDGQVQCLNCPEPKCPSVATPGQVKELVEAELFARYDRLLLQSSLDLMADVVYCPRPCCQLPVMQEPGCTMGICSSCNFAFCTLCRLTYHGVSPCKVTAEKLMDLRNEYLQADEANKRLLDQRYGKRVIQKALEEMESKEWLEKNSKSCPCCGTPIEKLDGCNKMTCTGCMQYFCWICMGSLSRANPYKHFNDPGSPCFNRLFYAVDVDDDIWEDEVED
UniProt Q8TC12: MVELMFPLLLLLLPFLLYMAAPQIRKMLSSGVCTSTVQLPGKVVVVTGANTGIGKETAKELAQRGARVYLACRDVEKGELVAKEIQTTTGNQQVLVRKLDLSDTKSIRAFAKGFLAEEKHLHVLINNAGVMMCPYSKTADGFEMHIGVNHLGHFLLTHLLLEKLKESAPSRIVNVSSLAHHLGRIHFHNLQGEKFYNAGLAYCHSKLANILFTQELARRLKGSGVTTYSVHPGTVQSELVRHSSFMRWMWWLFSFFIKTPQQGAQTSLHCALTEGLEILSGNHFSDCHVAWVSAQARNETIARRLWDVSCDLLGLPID
UniProt O00584, whole entry, looked up: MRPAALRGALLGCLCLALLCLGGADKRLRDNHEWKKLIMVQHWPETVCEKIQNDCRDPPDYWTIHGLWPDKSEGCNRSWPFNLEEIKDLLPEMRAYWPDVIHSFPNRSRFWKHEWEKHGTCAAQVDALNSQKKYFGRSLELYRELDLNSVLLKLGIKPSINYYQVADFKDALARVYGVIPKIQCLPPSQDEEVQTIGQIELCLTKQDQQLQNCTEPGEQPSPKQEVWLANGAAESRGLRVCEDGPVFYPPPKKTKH
UniProt O75792: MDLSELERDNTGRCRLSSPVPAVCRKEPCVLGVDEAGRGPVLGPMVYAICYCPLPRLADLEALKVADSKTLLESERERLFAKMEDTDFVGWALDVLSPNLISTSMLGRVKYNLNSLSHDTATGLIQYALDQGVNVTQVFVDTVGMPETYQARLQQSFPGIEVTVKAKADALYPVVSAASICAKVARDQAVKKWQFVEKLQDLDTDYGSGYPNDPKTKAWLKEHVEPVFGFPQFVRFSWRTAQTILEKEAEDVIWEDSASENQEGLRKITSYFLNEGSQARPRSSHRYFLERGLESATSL
UniProt Q8WVD3: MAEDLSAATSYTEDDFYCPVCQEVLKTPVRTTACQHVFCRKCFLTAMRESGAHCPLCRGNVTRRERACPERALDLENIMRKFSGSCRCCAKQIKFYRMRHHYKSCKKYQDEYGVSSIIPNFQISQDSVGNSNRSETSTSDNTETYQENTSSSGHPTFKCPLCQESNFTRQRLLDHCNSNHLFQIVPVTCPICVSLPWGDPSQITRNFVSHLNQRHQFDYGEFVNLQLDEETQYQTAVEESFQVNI
UniProt Q6PCD5: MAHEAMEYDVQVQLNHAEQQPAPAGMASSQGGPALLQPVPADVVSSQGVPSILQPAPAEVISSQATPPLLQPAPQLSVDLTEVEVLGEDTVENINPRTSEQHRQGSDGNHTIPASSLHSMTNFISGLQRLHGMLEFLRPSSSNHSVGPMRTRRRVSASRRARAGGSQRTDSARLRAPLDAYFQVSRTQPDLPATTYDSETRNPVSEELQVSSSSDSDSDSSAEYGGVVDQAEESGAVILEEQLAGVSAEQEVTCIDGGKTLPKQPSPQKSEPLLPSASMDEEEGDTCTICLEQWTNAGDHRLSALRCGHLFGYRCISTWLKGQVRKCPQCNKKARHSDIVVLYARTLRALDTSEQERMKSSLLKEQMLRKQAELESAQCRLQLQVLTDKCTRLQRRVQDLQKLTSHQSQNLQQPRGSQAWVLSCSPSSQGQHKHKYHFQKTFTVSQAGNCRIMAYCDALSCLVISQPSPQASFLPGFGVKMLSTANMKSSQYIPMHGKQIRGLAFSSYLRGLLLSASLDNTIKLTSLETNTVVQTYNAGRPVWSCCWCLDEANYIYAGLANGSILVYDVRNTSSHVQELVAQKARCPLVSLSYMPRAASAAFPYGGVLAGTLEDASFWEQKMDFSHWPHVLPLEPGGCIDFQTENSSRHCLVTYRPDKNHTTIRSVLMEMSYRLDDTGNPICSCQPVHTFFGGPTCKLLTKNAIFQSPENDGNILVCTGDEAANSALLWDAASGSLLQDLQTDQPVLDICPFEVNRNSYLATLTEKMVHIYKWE

What was measured:
Experiment in all cases: log2 fold change, soluble protein after heating vs DMSO (PISA); higher = thermal stabilisation; K562 cells, 10 uM, 30 min; active = over 0.2 and 3.5 SD of the protein, either way, in both replicates (recomputed)
[1] = compound: CS(=O)(=O)c1ccc(-c2cnc(N)c(C(=O)Nc3ccccc3)n2)cc1
Summary of the method: (§1)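 Values are thermal stability changes relative to control samples and are taken from duplicates. They are stated as log2 fold changes. Before quantification by TMTpro 16plex LC-MS/MS with equalised channel sums, K562 cells at 2×10^6 cells/mL were treated with 10 μM compound for 30 min, heated in aliquots for 3 min across 48°C-58°C, pooled, extracted in PBS with 0.5% NP-40 at 4°C, and centrifuged at 21,000xg for 90 min to give the soluble supernatant.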

crizotinib = compound: C[C@@H](Oc1cc(-c2cnn(C3CCNCC3)c2)cnc1N)c1c(Cl)ccc(F)c1Cl [crizotinib]
Summary of the method: as §1

[2] = compound: C[C@@H]1COCCN1C2=NC(=NC(=C2)C3(CC3)S(=O)(=O)C)C4=C5C=CNC5=CC=C4
Summary of the method: as §1

[3] = compound: C[C@H](C1=CC=C(C=C1)C(=O)NC2=C3C=CNC3=NC=C2)N
Summary of the method: as §1

gandotinib = compound: Cc1cc(Nc2cc(CN3CCOCC3)c3nc(C)c(Cc4ccc(Cl)cc4F)n3n2)n[nH]1 [gandotinib]
Summary of the method: as §1

[4] = compound: Cc1cc(SCc2sc(-c3ccc(C(F)(F)F)cc3)nc2C)ccc1OCC(=O)O
Summary of the method: as §1

doramapimod = compound: Cc1ccc(-n2nc(C(C)(C)C)cc2NC(=O)Nc2ccc(OCCN3CCOCC3)c3ccccc23)cc1 [doramapimod]
Summary of the method: as §1

ispinesib = compound: Cc1ccc(C(=O)N(CCCN)[C@@H](c2nc3cc(Cl)ccc3c(=O)n2Cc2ccccc2)C(C)C)cc1 [ispinesib]
Summary of the method: as §1

duvelisib = compound: C[C@H](Nc1ncnc2nc[nH]c12)c1cc2cccc(Cl)c2c(=O)n1-c1ccccc1 [duvelisib]
Summary of the method: as §1

tozasertib = compound: Cc1cc(Nc2cc(N3CCN(C)CC3)nc(Sc3ccc(NC(=O)C4CC4)cc3)n2)n[nH]1 [tozasertib]
Summary of the method: as §1

Measured: log2 fold change

RNF167 (UniProt Q9H6Y7)
inactive: [1] 0.087 | crizotinib -0.133 | [2] -0.097 | [3] 0.082 | gandotinib -0.045 | [4] 0.018 | doramapimod -0.056
active: ispinesib -0.668

RFX5 (UniProt P48382)
inactive: [1] 0.043 | crizotinib -0.267 | [2] 0.053 | gandotinib -0.069 | doramapimod 0.031 | ispinesib -0.093

RDH13 (UniProt Q8NBN7)
active: ispinesib -0.322
inactive: [1] 0.04 | crizotinib -0.231 | [2] 0.161 | [3] -0.019 | gandotinib -0.08 | [4] 0.029 | doramapimod -0.037

RFC3 (UniProt P40938)
inactive: [1] 0.029 | crizotinib 0.016 | [2] 0.163 | [3] 0.071 | gandotinib -0.042 | [4] 0.061 | doramapimod -0.005 | ispinesib 0.067

RETSAT (UniProt Q6NUM9)
inactive: [1] -0.038 | crizotinib 0.005 | [2] -0.129 | [3] -0.003 | gandotinib 0.284 | [4] 0.036 | doramapimod 0.147 | ispinesib -0.008

RIOK2 (UniProt Q9BVS4)
inactive: [1] 0.059 | crizotinib -0.057 | [2] -0.167 | [3] 0.189 | gandotinib 0.263 | [4] 0.053 | doramapimod 0.084 | ispinesib -0.019

RCC1 isoform 2 (UniProt P18754)
inactive: crizotinib -0.032 | [2] 0.13 | [3] -0.04 | gandotinib -0.1 | [4] 0.154 | doramapimod -0.008 | ispinesib -0.007
active: [1] 0.418

RIC8A isoform 3 (UniProt Q9NPQ8)
inactive: [1] 0.042 | crizotinib -0.085 | [2] -0.036 | [3] 0.094 | gandotinib -0.038 | [4] 0.193 | doramapimod 0.094 | ispinesib -0.145

RETREG2 (UniProt Q8NC44)
inactive: [1] -0.054 | crizotinib -0.025 | [3] -0.196 | duvelisib 0.061 | tozasertib -0.01 | [4] -0.002 | doramapimod -0.116 | ispinesib -0.044

RELCH isoform 2 (UniProt Q9P260)
inactive: [1] 0.016 | [2] 0.027 | [3] 0.004 | duvelisib 0.028 | gandotinib -0.036 | tozasertib -0.069 | [4] 0.055 | ispinesib 0.035

RBM7 (UniProt Q9Y580)
inactive: [1] 0.081 | [2] -0.002 | [3] -0.038 | duvelisib 0.052 | gandotinib -0.13 | tozasertib -0.053 | [4] 0.091 | ispinesib -0.34

RBM8A (UniProt Q9Y5S9)
active: crizotinib 0.287
inactive: [1] 0.012 | [2] 0.007 | [3] 0.025 | gandotinib 0.069 | [4] 0.025 | doramapimod -0.078 | ispinesib 0.099

REL (UniProt Q04864)
inactive: [1] 0.079 | crizotinib -0.04 | [2] 0.005 | [3] 0.02 | gandotinib -0.321 | [4] 0.028 | doramapimod -0.003 | ispinesib -0.088

RGS10 (UniProt O43665)
inactive: [1] 0.014 | crizotinib -0.045 | [2] 0.012 | [3] -0.231 | gandotinib -0.023 | [4] 0.024 | doramapimod 0.006 | ispinesib 0.017

RNF187 (UniProt Q5TA31)
inactive: [1] -0.097 | crizotinib -0.018 | [2] -0.019 | [3] -0.027 | gandotinib -0.111 | [4] 0.038 | doramapimod 0.015 | ispinesib 0.191

RNF14 (UniProt Q9UBS8)
inactive: [1] 0.034 | crizotinib 0.014 | [2] 0.081 | [3] -0.053 | gandotinib 0.001 | [4] 0.041 | doramapimod -0.025 | ispinesib -0.032

RIC1 (UniProt Q4ADV7)
inactive: [1] 0.106 | crizotinib -0.159 | [2] 0.079 | duvelisib 0.101 | gandotinib -0.007 | [4] 0.185 | doramapimod -0.004 | ispinesib 0.142

RDH11 (UniProt Q8TC12)
active: [4] 0.425
inactive: [1] 0.164 | crizotinib -0.303 | [2] 0.082 | [3] 0.116 | gandotinib 0.115 | doramapimod 0.098 | ispinesib -0.365

RNASET2 (UniProt O00584)
active: crizotinib -0.35
inactive: [1] 0.033 | [2] 0.027 | [3] 0.08 | gandotinib 0.01 | [4] -0.037 | doramapimod -0.013 | ispinesib -0.149

RNF139 (UniProt Q8WU17)
inactive: [1] -0.094 | crizotinib 0.025 | [2] 0.021 | gandotinib 0.156 | tozasertib 0 | doramapimod 0 | ispinesib 0.032

Quoted from the entries so far (2 entries):
RDH11 (UniProt Q8TC12)
active: [4] 0.425
inactive: [1] 0.164 | crizotinib -0.303 | [2] 0.082 | [3] 0.116 | gandotinib 0.115 | doramapimod 0.098 | ispinesib -0.365

RNASET2 (UniProt O00584)
active: crizotinib -0.35
inactive: [1] 0.033 | [2] 0.027 | [3] 0.08 | gandotinib 0.01 | [4] -0.037 | doramapimod -0.013 | ispinesib -0.149

The results go on.

RNASEH2A (UniProt O75792)
inactive: [1] 0.106 | crizotinib -0.134 | [2] -0.045 | [3] -0.032 | gandotinib 0.156 | [4] 0.029 | doramapimod -0.023 | ispinesib -0.001

RIMKLB (UniProt Q9ULI2)
inactive: [1] 0.201 | crizotinib 0.079 | [2] -0.035 | doramapimod -0.029

RNF138 (UniProt Q8WVD3)
inactive: [1] 0.047 | [2] 0.05 | [3] -0.044 | duvelisib -0.016 | gandotinib -0.054 | tozasertib 0.018 | [4] 0.053

RIOK3 (UniProt O14730)
inactive: [1] -0.004 | crizotinib -0.031 | [2] 0.029 | [3] -0.026 | gandotinib 0.086 | [4] -0.011 | doramapimod -0.019 | ispinesib -0.004

RECQL (UniProt P46063)
inactive: [1] 0.031 | crizotinib 0.033 | [2] 0.112 | [3] -0.082 | gandotinib -0.057 | [4] 0.003 | doramapimod -0.011 | ispinesib 0.056

RHEB (UniProt Q15382)
inactive: [1] -0.001 | crizotinib 0.038 | [2] 0.096 | [3] -0.041 | gandotinib -0.097 | [4] -0.009 | doramapimod -0.018 | ispinesib 0.042

RFWD3 (UniProt Q6PCD5)
inactive: [1] -0.161 | [2] -0.027 | [3] 0.03

REEP4 (UniProt Q9H6H4)
inactive: [1] -0.015 | crizotinib -0.148 | [2] -0.027 | [3] 0.02 | gandotinib 0.001 | [4] 0.02 | doramapimod 0.06
active: ispinesib -0.275

RBM4 (UniProt Q9BWF3)
inactive: [1] -0.024 | crizotinib -0.04 | [2] -0.081 | [3] 0.06 | gandotinib -0.037 | [4] 0.021 | doramapimod 0.021 | ispinesib -0.094
